Results taken from the supplement of paper PMC7661543.
The effect of the compound repeats well; differences between the knockouts mostly do not.

Tests used:
HCC-38 = experiment: relative cell number vs DMSO control (72 h) (% of DMSO); higher = less growth inhibition (more cells)
Method: (§1)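 QMAP-Seq: a pool of 5 breast cancer cell lines (ZR-75-1, SKBR3, HCC-38, MDA-MB-231, BT-20), each carrying 12 doxycycline-inducible Cas9 sgRNA perturbations (11 knockouts plus non-targeting sgNT), was treated with compounds for 72 h at four 10-fold doses (10 nM-10 uM or 1 nM-1 uM range). Barcodes were amplified and sequenced, and cell number was interpolated from 293T spike-in standard curves. The result is expressed as % of the median of DMSO wells. Two biological replicates.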

BT-20 = experiment: as above
Method: as §1

COc1cc2ncnc(Nc3ccc(F)c(Cl)c3)c2cc1OCCCN1CCOCC1 [Gefitinib]
relative cell number
Details	BT-20	HCC-38
sgRNA knockout: sgATF3, 10 nM	90.9	92.6
sgRNA knockout: sgATF3, 100 nM	98.9	108
sgRNA knockout: sgATF3, 1000 nM	73.2	113
sgRNA knockout: sgATF3, 10000 nM	79.2	87.6
sgRNA knockout: sgATF4, 10 nM	89.1	87.2
sgRNA knockout: sgATF4, 100 nM	85.5	99.4
sgRNA knockout: sgATF4, 1000 nM	82.9	110
sgRNA knockout: sgATF4, 10000 nM	69	83.1
sgRNA knockout: sgATF6, 10 nM	91	88.2
sgRNA knockout: sgATF6, 100 nM	99.8	92.4
sgRNA knockout: sgATF6, 1000 nM	78.4	107
sgRNA knockout: sgATF6, 10000 nM	73.7	88.9
sgRNA knockout: sgATG7, 10 nM	85.9	80.3
sgRNA knockout: sgATG7, 100 nM	98.7	92.1
sgRNA knockout: sgATG7, 1000 nM	75.8	113
sgRNA knockout: sgATG7, 10000 nM	77.5	92.1
sgRNA knockout: sgERN1, 10 nM	86.7	91.6
sgRNA knockout: sgERN1, 100 nM	95.1	115
sgRNA knockout: sgERN1, 1000 nM	86.7	109
sgRNA knockout: sgERN1, 10000 nM	65.3	97.8
sgRNA knockout: sgHSF1, 10 nM	97.5	95.6
sgRNA knockout: sgHSF1, 100 nM	94	106
sgRNA knockout: sgHSF1, 1000 nM	92.1	104
sgRNA knockout: sgHSF1, 10000 nM	66.3	106
sgRNA knockout: sgHSF2, 10 nM	77.1	98.8
sgRNA knockout: sgHSF2, 100 nM	87.2	107
sgRNA knockout: sgHSF2, 1000 nM	94.6	105
sgRNA knockout: sgHSF2, 10000 nM	69.01	91.8
sgRNA knockout: sgKEAP1, 10 nM	93.7	102
sgRNA knockout: sgKEAP1, 100 nM	83.8	116
sgRNA knockout: sgKEAP1, 1000 nM	88	89.9
sgRNA knockout: sgKEAP1, 10000 nM	74.9	91.1
sgRNA knockout: sgNFE2L2, 10 nM	84.1	76.5
sgRNA knockout: sgNFE2L2, 100 nM	90.797	102.7
sgRNA knockout: sgNFE2L2, 1000 nM	77	113
sgRNA knockout: sgNFE2L2, 10000 nM	89.6	86.6
sgRNA knockout: sgSLC35F2, 10 nM	94.9	89.2
sgRNA knockout: sgSLC35F2, 100 nM	98.7	110
sgRNA knockout: sgSLC35F2, 1000 nM	86.5	98.5
sgRNA knockout: sgSLC35F2, 10000 nM	66.9	96.5
sgRNA knockout: sgXBP1, 10 nM	83.1	86.3
sgRNA knockout: sgXBP1, 100 nM	100	109
sgRNA knockout: sgXBP1, 1000 nM	82.45	109
sgRNA knockout: sgXBP1, 10000 nM	77	88.382

COc1cc(Nc2ncc3c(n2)-c2ccc(Cl)cc2C(c2c(F)cccc2OC)=NC3)ccc1C(=O)O [Alisertib]
relative cell number
Details	BT-20	HCC-38
sgRNA knockout: sgATF3, 10 nM	112	102
sgRNA knockout: sgATF3, 100 nM	74.7	62.33
sgRNA knockout: sgATF3, 1000 nM	67.9	50
sgRNA knockout: sgATF3, 10000 nM	65.6	47.5
sgRNA knockout: sgATF4, 10 nM	112	100
sgRNA knockout: sgATF4, 100 nM	90	71.4
sgRNA knockout: sgATF4, 1000 nM	66.2	53.9
sgRNA knockout: sgATF4, 10000 nM	60.2	43
sgRNA knockout: sgATF6, 10 nM	108	102
sgRNA knockout: sgATF6, 100 nM	70.4	49.3
sgRNA knockout: sgATF6, 1000 nM	87.4	64.4
sgRNA knockout: sgATF6, 10000 nM	67.5	55.3
sgRNA knockout: sgATG7, 10 nM	104	110
sgRNA knockout: sgATG7, 100 nM	89.8	60.5
sgRNA knockout: sgATG7, 1000 nM	71.8	54.4
sgRNA knockout: sgATG7, 10000 nM	67.9	48.1
sgRNA knockout: sgERN1, 10 nM	105	91.8
sgRNA knockout: sgERN1, 100 nM	78.5	62.5
sgRNA knockout: sgERN1, 1000 nM	61.3	60.4
sgRNA knockout: sgERN1, 10000 nM	71.9	50.8
sgRNA knockout: sgHSF1, 10 nM	90.5	111
sgRNA knockout: sgHSF1, 100 nM	75.8	57.8
sgRNA knockout: sgHSF1, 1000 nM	80.7	50.3
sgRNA knockout: sgHSF1, 10000 nM	60.8	51.6
sgRNA knockout: sgHSF2, 10 nM	107	106
sgRNA knockout: sgHSF2, 100 nM	70.3	61.8
sgRNA knockout: sgHSF2, 1000 nM	76.7	61.3
sgRNA knockout: sgHSF2, 10000 nM	67.8	48.5
sgRNA knockout: sgKEAP1, 10 nM	95	111
sgRNA knockout: sgKEAP1, 100 nM	80	44.4
sgRNA knockout: sgKEAP1, 1000 nM	74.6	66.1
sgRNA knockout: sgKEAP1, 10000 nM	63.3	58.8
sgRNA knockout: sgNFE2L2, 10 nM	98.5	95.4
sgRNA knockout: sgNFE2L2, 100 nM	61.9	64.22
sgRNA knockout: sgNFE2L2, 1000 nM	83.41	51
sgRNA knockout: sgNFE2L2, 10000 nM	65.3	42.7
sgRNA knockout: sgSLC35F2, 10 nM	98.6	97.9
sgRNA knockout: sgSLC35F2, 100 nM	78.27	57.3
sgRNA knockout: sgSLC35F2, 1000 nM	74.9	60.9
sgRNA knockout: sgSLC35F2, 10000 nM	63.8	48.6
sgRNA knockout: sgXBP1, 10 nM	111	96.4
sgRNA knockout: sgXBP1, 100 nM	79.6	63.9
sgRNA knockout: sgXBP1, 1000 nM	77.9	54.4
sgRNA knockout: sgXBP1, 10000 nM	63.3	47.8

CC(=O)c1c(C)c2cnc(Nc3ccc(N4CCNCC4)cn3)nc2n(C2CCCC2)c1=O [Palbociclib]
relative cell number
Details	BT-20	HCC-38
sgRNA knockout: sgATF3, 10 nM	77	81
sgRNA knockout: sgATF3, 100 nM	44.3	41.5
sgRNA knockout: sgATF3, 1000 nM	45	44.6
sgRNA knockout: sgATF3, 10000 nM	39.9	39.8
sgRNA knockout: sgATF4, 10 nM	78.7	80.8
sgRNA knockout: sgATF4, 100 nM	37.9	39.3
sgRNA knockout: sgATF4, 1000 nM	47.9	47.2
sgRNA knockout: sgATF4, 10000 nM	46.9	40.8
sgRNA knockout: sgATF6, 10 nM	93.3	81.7
sgRNA knockout: sgATF6, 100 nM	36.1	44
sgRNA knockout: sgATF6, 1000 nM	45	42.6
sgRNA knockout: sgATF6, 10000 nM	44	45.9
sgRNA knockout: sgATG7, 10 nM	82.2	81.2
sgRNA knockout: sgATG7, 100 nM	41.3	41.1
sgRNA knockout: sgATG7, 1000 nM	45.4	40.6
sgRNA knockout: sgATG7, 10000 nM	40.4	41.7
sgRNA knockout: sgERN1, 10 nM	75.6	79.3
sgRNA knockout: sgERN1, 100 nM	43.1	41.9
sgRNA knockout: sgERN1, 1000 nM	47	39.62
sgRNA knockout: sgERN1, 10000 nM	55.6	40
sgRNA knockout: sgHSF1, 10 nM	83.1	76.1
sgRNA knockout: sgHSF1, 100 nM	34.3	37.6
sgRNA knockout: sgHSF1, 1000 nM	50.8	48.4
sgRNA knockout: sgHSF1, 10000 nM	43	51.3
sgRNA knockout: sgHSF2, 10 nM	77.5	87.9
sgRNA knockout: sgHSF2, 100 nM	37	45
sgRNA knockout: sgHSF2, 1000 nM	45.5	42.9
sgRNA knockout: sgHSF2, 10000 nM	37.5	44.8
sgRNA knockout: sgKEAP1, 10 nM	85	78
sgRNA knockout: sgKEAP1, 100 nM	42.13	53.7
sgRNA knockout: sgKEAP1, 1000 nM	40.2	40
sgRNA knockout: sgKEAP1, 10000 nM	41.5	34.4
sgRNA knockout: sgNFE2L2, 10 nM	81.7	83.1
sgRNA knockout: sgNFE2L2, 100 nM	35.4	39
sgRNA knockout: sgNFE2L2, 1000 nM	57	42
sgRNA knockout: sgNFE2L2, 10000 nM	45.5	38.7
sgRNA knockout: sgSLC35F2, 10 nM	82	81.8
sgRNA knockout: sgSLC35F2, 100 nM	37.7	41.7
sgRNA knockout: sgSLC35F2, 1000 nM	43.7	42.8
sgRNA knockout: sgSLC35F2, 10000 nM	52.2	39.3
sgRNA knockout: sgXBP1, 10 nM	75.4	87.3
sgRNA knockout: sgXBP1, 100 nM	46.5	42.8
sgRNA knockout: sgXBP1, 1000 nM	51.9	49.3
sgRNA knockout: sgXBP1, 10000 nM	44.8	43

Oc1cccc(-c2nc(N3CCOCC3)c3oc4ncccc4c3n2)c1 [PI103]
relative cell number
Details	BT-20	HCC-38
sgRNA knockout: sgATF3, 10 nM	123	119
sgRNA knockout: sgATF3, 100 nM	119	121
sgRNA knockout: sgATF3, 1000 nM	71.7	85.1
sgRNA knockout: sgATF3, 10000 nM	47.4	34.9
sgRNA knockout: sgATF4, 10 nM	105	109
sgRNA knockout: sgATF4, 100 nM	146	123.2
sgRNA knockout: sgATF4, 1000 nM	86	90.5
sgRNA knockout: sgATF4, 10000 nM	50.4	34.8
sgRNA knockout: sgATF6, 10 nM	101	122
sgRNA knockout: sgATF6, 100 nM	106	130
sgRNA knockout: sgATF6, 1000 nM	75.6	83.2
sgRNA knockout: sgATF6, 10000 nM	49.4	33
sgRNA knockout: sgATG7, 10 nM	107	119
sgRNA knockout: sgATG7, 100 nM	115	122
sgRNA knockout: sgATG7, 1000 nM	66.4	86.19
sgRNA knockout: sgATG7, 10000 nM	45.2	36.5
sgRNA knockout: sgERN1, 10 nM	111	118
sgRNA knockout: sgERN1, 100 nM	127	131
sgRNA knockout: sgERN1, 1000 nM	78.9	93.6
sgRNA knockout: sgERN1, 10000 nM	52.3	36.4
sgRNA knockout: sgHSF1, 10 nM	109	131
sgRNA knockout: sgHSF1, 100 nM	106	133
sgRNA knockout: sgHSF1, 1000 nM	77.5	92.3
sgRNA knockout: sgHSF1, 10000 nM	45.6	33.7
sgRNA knockout: sgHSF2, 10 nM	131	116
sgRNA knockout: sgHSF2, 100 nM	111	132
sgRNA knockout: sgHSF2, 1000 nM	79.9	86.4
sgRNA knockout: sgHSF2, 10000 nM	51.1	33.4
sgRNA knockout: sgKEAP1, 10 nM	113	138
sgRNA knockout: sgKEAP1, 100 nM	119	178
sgRNA knockout: sgKEAP1, 1000 nM	71.3	89.4
sgRNA knockout: sgKEAP1, 10000 nM	44.3	45.5
sgRNA knockout: sgNFE2L2, 10 nM	108	112
sgRNA knockout: sgNFE2L2, 100 nM	146	114
sgRNA knockout: sgNFE2L2, 1000 nM	83.2	89.4
sgRNA knockout: sgNFE2L2, 10000 nM	52	28.4
sgRNA knockout: sgSLC35F2, 10 nM	104	114
sgRNA knockout: sgSLC35F2, 100 nM	116	127.2
sgRNA knockout: sgSLC35F2, 1000 nM	71.5	81.4
sgRNA knockout: sgSLC35F2, 10000 nM	43.78	34.3
sgRNA knockout: sgXBP1, 10 nM	119	118
sgRNA knockout: sgXBP1, 100 nM	111	114
sgRNA knockout: sgXBP1, 1000 nM	81.01	84
sgRNA knockout: sgXBP1, 10000 nM	39.5	30.9
